About 22,000 (6.9%) of roughly 320,000 compounds were called active. Inconclusive results, whose numbers are uncertain, are shown with a selection of clear calls. The call rests on the fitted dose curve; in most records, active means well fitted inhibition curve with a large enough effect; inconclusive means small, poorly fitted or top-dose-only effect, or another doubt; inactive means no such curve, though single readings can be large or run the other way. Where the call is inconclusive, the potency comes from a doubtful curve fit.
test: Primary qHTS for delayed death inhibitors of the malarial parasite plastid, 96 hour incubation; details: P. falciparum luciferase reporter growth; series mostly up to 28.7 µM; activity change, negative = inhibition: at the top concentration
Outline: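 Compounds incubated with erythrocytes infected by luciferase-expressing P. falciparum (2% hematocrit, 0.05% parasitemia final) for 96 hours, 37 C in 5% CO2. Growth inhibition scored as decreased luciferase luminescence.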
On the % scale 0 is the no-effect control and ±100 the full control effect; potency means the concentration at half of the fitted maximal effect.

Compound | activity change, negative = inhibition | Potency
O=C(O)c1cnn(-c2nc(-c3ccc(Cl)cc3)cs2)c1C(F)(F)F | inactive: 15.7% | 
O=C(O)Cc1c[nH]c2cccc(O)c12 | inactive: -17.4% | 
O=C(O)Cn1c(=O)c(F)cn(C2CCCO2)c1=O (centres undefined) | inactive: 24.1% | 
Cc1ccc(/C=N/NC(=O)C[n+]2ccccc2)s1 | inactive: 21.3% | 
CC1CCCN(C(=O)c2ccc(NS(=O)(=O)c3ccc4[nH]c(=O)[nH]c4c3)cc2)C1 (centres undefined) |  | inconclusive: 2.94 µM [inhibitor, partial curve, poor fit]
CC(=O)N(CCC(c1ccco1)C(C)C)Cc1ccc(Cl)cc1 (centres undefined) |  | inconclusive: 11.7 µM [inhibitor, single point]
CCc1ccc(NC(=O)CCc2nc3cccnc3n2Cc2ccc(OC)cc2)cc1 |  | inconclusive: 8.28 µM [inhibitor, partial curve, poor fit]
COc1ccccc1CC(=O)Nc1sc2c(c1C(N)=O)CCCC2 | inactive: -29.3% | 
Cc1ccc(CN2CCSc3sccc3C2=O)cc1 |  | inconclusive: 14.7 µM [inhibitor, single point]
O=C(CCc1nnc(Cc2cccc(C(F)(F)F)c2)o1)NCCc1ccccc1F | inactive: 13.4% | 
O=C(NC1(O)C(=O)c2ccccc2C1=O)c1ccccc1 | inactive: -20% | 
COCCCNC(=O)CS(=O)(=O)Cc1nc(-c2cccc(OC)c2)oc1C | inactive: 32.8% | 
COCCn1c(C)cc(C(=O)COC(=O)CCS(=O)(=O)c2ccc(C)cc2)c1C | inactive: -6.89% | 
CNc1c(NS(=O)(=O)c2cc(Cl)ccc2OC)c(=O)oc2ccccc12 | inactive: -19.5% | 
Cc1ccc(N(CC(=O)NC2CCCCC2)S(=O)(=O)c2c(C)nn(C)c2C)cc1 |  | inconclusive: 1.65 µM [inhibitor, full curve]
COc1ccc(CNC(=O)CCS(=O)(=O)c2ccc3c(c2)CC(C)N3C(=O)C2CC2)cc1 (centres undefined) | inactive: 37.6% | 
O=C(O)CCc1nc(-c2ccccc2Cl)no1 |  | inconclusive: 0.0828 µM [inhibitor, full curve, poor fit]
CN1C(=O)c2cccc3c(S(=O)(=O)N(C)C)ccc1c23 |  | inconclusive: 0.928 µM [inhibitor, partial curve]
COc1ccccc1/C=C/C1C(C(=O)OCC(C)C)=C(C)N=C2SCCC(=O)N21 (centres undefined) |  | inconclusive: 10.4 µM [inhibitor, single point]
O=C1C(=O)N(CC2CCCO2)C(c2ccco2)/C1=C(/O)c1ccc(F)cc1 (centres undefined) | inactive: 12.2% | 
CCOc1cc(-c2sc(Nc3ccccc3)n[n+]2-c2ccc(F)cc2)ccc1OC |  | inconclusive: 0.738 µM [inhibitor, full curve]
O=C(COn1nnc2ccc(C(F)(F)F)cc21)Nc1nnc(-c2ccccc2)o1 |  | inconclusive: 0.0029 µM [inhibitor, full curve, poor fit]
O=C1CCC([N+](=O)[O-])C(c2cccc(Cl)c2Cl)N1 (centres undefined) | inactive: -12% | 
COc1ccc(-c2nnc(SCc3nnc(-c4ccc(Cl)cc4)o3)n2-c2ccccc2)cc1 |  | inconclusive: 4.15 µM [inhibitor, partial curve, poor fit]
Cc1cc(Nc2cccc(O)c2)c2ccccc2n1 | inactive: 6.01% | 

Compound | activity change, negative = inhibition | Potency
O=C(CSc1nnc(-c2cccs2)n1CC1CCCO1)N1CCCC1 (centres undefined) | inactive: 4.16% | 
COc1ccc(CNC(=O)CN(C(=O)CCC(=O)Nc2nccs2)c2ccc(C)cc2)cc1 |  | active: 7.38 µM
CC(CCc1ccc(O)cc1)NC(c1ccccc1)c1ccc(Cl)cc1 (centres undefined) |  | inconclusive: 18.5 µM [inhibitor, single point]
CC(=O)N(\C=C/C=C/C=C1\Sc2ccccc2C1=O)c1ccccc1 | inactive: 63.6% | 
COC(=O)c1ccccc1NC(=O)C12CC3CC(C1)CC(n1cnc(Cl)n1)(C3)C2 |  | inconclusive: 2.33 µM [inhibitor, full curve]
COc1cc2nc(N3CCN(C(=O)[C@@H]4CCCO4)CC3)nc(N)c2cc1OC |  | inconclusive: 9.28 µM [inhibitor, partial curve, poor fit]
COc1ccc(C)c2sc(N(CCCN(C)C)C(=O)c3ccc(S(=O)(=O)N(C)C)cc3)nc12 |  | inconclusive: 18.5 µM [inhibitor, single point]
Oc1ccc(-c2cccc(-c3ccc(O)cc3)n2)cc1 | inactive: -10.2% | 
c1ccc2c(OCCCCN3CCOCC3)cccc2c1 | inactive: -20.3% | 
O=C(Nc1ccccc1)C(Cl)C(=O)c1ccccc1 (centres undefined) | inactive: -18% | 
CCCc1cc(=O)[nH]c2nnc(SCC(=O)Nc3ccc(NC(C)=O)cc3)n12 |  | inconclusive: 11.7 µM [inhibitor, single point]
CC(=O)Nc1ccc(NC(=O)C(F)(F)F)cc1 | inactive: 20.3% | 
Cc1cccc(NC(=O)c2nc[nH]c2C(=O)N[C@@H](Cc2ccccc2)C(=O)OCc2ccccc2)c1 |  | inconclusive: 10.4 µM [inhibitor, partial curve]
CCOc1ccc(N(CC(=O)Nc2cc(Cl)ccc2C)S(C)(=O)=O)cc1 |  | inconclusive: 18.5 µM [inhibitor, partial curve, poor fit]
COc1cccc(-n2nnnc2SCC(=O)NCc2ccc3c(c2)OCO3)c1 |  | inconclusive: 0.586 µM [inhibitor, partial curve]
O=C1/C(=C\c2cccnc2)N2CCC1CC2 |  | active: 9.28 µM
COCc1cc(C)n(CC(=O)Nc2cccc(C)c2)c(=O)c1C#N |  | inconclusive: 8.28 µM [inhibitor, partial curve, poor fit]
Cc1c(C(=O)N2CC[C@@H](N3CCC(O)CC3)[C@H](O)C2)[nH]c2ccc(Cl)cc12 |  | inconclusive: 18.5 µM [inhibitor, single point]
CCOC(=O)c1cc(CC)sc1NC(=O)CSc1nc2ccccc2c(=O)n1Cc1ccco1 | inactive: 44.6% | 
O=c1c([N+](=O)[O-])c(N2CCCCC2)c2ccccc2n1-c1ccccc1 |  | inconclusive: 11.7 µM [inhibitor, single point]
CNc1nc(C)cc(C)c1S(=O)(=O)c1ccc(Cl)cc1 | inactive: -14.1% | 
O=C(Nc1ccc2c(c1)OCCO2)C1CCN(S(=O)(=O)c2cccc3nsnc23)CC1 |  | inconclusive: 7.38 µM [inhibitor, partial curve, poor fit]
CCOC(=O)Cn1cc(/C=N/N2C(=O)C3C4C=CC(C4)C3C2=O)c2ccccc21 (centres undefined) | inactive: 20.8% | 
COC(=O)CCC(=O)OC1(C)C(=O)C=C2C=C(C3CC3)N(CCc3ccccn3)C=C2C1=O (centres undefined) |  | inconclusive: 18.5 µM [inhibitor, single point]
COc1ccccc1C1c2ccc3ccccc3c2Oc2ncn(CCCO)c(=N)c21 (centres undefined) |  | active: 2.62 µM

Compound | activity change, negative = inhibition | Potency
CC(=O)N1N=C(c2cccc([N+](=O)[O-])c2)OC1(C)CC(=O)Nc1ccccc1 (centres undefined) |  | inconclusive: 10.4 µM [inhibitor, single point]
Cc1ccc(C2Nc3ccccc3C(=O)N2Cc2ccco2)cc1 (centres undefined) |  | active: 14.7 µM
O=C(NCc1cccnc1)c1ccccc1CCc1ccccc1 | inactive: 18.7% [at 1.15 µM] | 
CCOC(=O)N1CCN(c2nc(C(F)(F)F)nc3c(C)cc(C)cc23)CC1 |  | inconclusive: 9.28 µM [inhibitor, partial curve, poor fit]
Cc1nc(N(CCO)C2CCCCC2)c2nnn(Cc3ccccc3)c2n1 | inactive: 54.3% | 
O=C(O)/C=C/c1ccc2noc(-c3ccccc3)c2c1 | inactive: -2.36% | 
Cc1ccccc1C(=O)NC(NC(=O)c1ccccc1C)c1cccc([N+](=O)[O-])c1 |  | active: 1.65 µM
N=C(N)n1c(N)nc2ccccc2c1=O |  | inconclusive: 0.0738 µM [inhibitor, full curve]
CC(Sc1nc(N)cc(N)n1)C(=O)NCCC1=CCCCC1 (centres undefined) | inactive: -20.7% | 
COc1ccc(NS(=O)(=O)c2cc(NC(=O)/C=C/c3ccccc3OC)ccc2N2CCCCC2)cc1 |  | active: 1.04 µM
Cc1ccc(C)c(NC(=O)COc2cccc3c2CCN(Cc2ccccc2)C3=O)c1 |  | inconclusive: 1.04 µM [inhibitor, partial curve, poor fit]
Cc1ccc(C(=O)Oc2ccccc2C(=O)N2CCOCC2)cc1 |  | inconclusive: 0.37 µM [inhibitor, full curve, poor fit]
O=C(N/N=C/c1ccc(Cl)s1)C(O)c1ccccc1 (centres undefined) |  | inconclusive: 10.4 µM [inhibitor, single point]
COc1ccc(NC(=O)CO/N=C2/CCCc3nonc32)c(OC)c1 |  | inconclusive: 0.738 µM [inhibitor, full curve, poor fit]
CCc1ccccc1N(CC(=O)NCc1ccco1)C(=O)c1snc(C(N)=O)c1N |  | inconclusive: 10.4 µM [inhibitor, partial curve]
COc1ccc(NC(=O)c2ccco2)c(OC)c1 |  | inconclusive: 18.5 µM [inhibitor, single point]
Cc1ccc(-c2nc(S(=O)(=O)c3ccc(C)cc3)c(N3CCOCC3)o2)cc1 | inactive: 1.42% | 
Cc1ccc(C(=O)CC(=O)c2ccccc2C)c(O)c1 |  | inconclusive: 18.5 µM [inhibitor, single point]
O=C(NCC(=O)N1CCN(C/C=C/c2ccccc2)CC1)c1ccc(OC(F)F)cc1 |  | inconclusive: 9.28 µM [inhibitor, single point]
CC1(C)CC(=O)C(N=Nc2cc(C(F)(F)F)ccc2Cl)=C(O)C1 | inactive: 4.34% | 
COc1ccc(NC(=O)c2ccccc2C)c(OC)c1 |  | inconclusive: 18.5 µM [inhibitor, single point]
Fc1ccc(-c2nc3c(Cl)cc(C(F)(F)F)cn3c2Cl)cc1 | inactive: 63% | 
CCCC(=O)NC(=S)Nc1ccc(CN2CCOCC2)cc1 |  | inconclusive: 0.147 µM [inhibitor, full curve, poor fit]
CC(OC(=O)c1ccc(S(=O)(=O)N(C)c2ccccc2)cc1)C(=O)NCCC1=CCCCC1 (centres undefined) | inactive: -8.07% | 

Source: PubChem BioAssay AID504834 (National Center for Advancing Translational Sciences (NCATS), 2011)
